# Results published in PubChem BioAssay AID1347075 (National Center for Advancing Translational Sciences (NCATS), 2019).
# About 5,500 (1.4%) of roughly 400,000 compounds were called active. The shares of active, inactive and inconclusive entries below differ from those in the screen. The call rests on the fitted dose curve; in most records, active means well fitted cell-killing curve with a large enough effect; inconclusive means small, poorly fitted or top-dose-only effect, or effect the other way; inactive means flat fitted curve, though single readings scatter. Where the call is inconclusive, the potency comes from a doubtful curve fit.
# Experiment: qHTS assay for MDR1-selective chemotherapeutics: Primary screen using the parental adenocarcinoma cell KB-3-1; further: nearly all actives have a fitted effect of over 60% in size
# Settings: KB-3-1 viability, CellTiter-Glo ATP luminescence, 72 h; activity change, negative = cytotoxic: at 46.1 µM (top of the series)
# Outline: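 Using CellTiter-Glo luminescence, growth of non-resistant KB-3-1 adenocarcinoma cells is assessed 72 h after pin-tool compound addition at 37 °C. Normalized responses across the concentration series yield fitted curves.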
# On the % scale 0 is the no-effect control and ±100 the full control effect; potency means the concentration at half of the fitted maximal effect.
Structure (SMILES),Potency,"activity change, negative = cytotoxic"
C=CCN(C(=O)CCc1ccccc1OC)c1nc(-c2ccc(S(C)(=O)=O)cc2)cs1,inactive,
O=C(Nc1cccc(Cl)c1)c1nc[nH]c1C(=O)NCCN(CCNC(=O)c1[nH]cnc1C(=O)Nc1cccc(Cl)c1)CCNC(=O)c1[nH]cnc1C(=O)Nc1cccc(Cl)c1,inactive,
CC(C)(C)C(=O)NC(=S)NNC(=O)c1ccc(Cl)cc1Cl,"inconclusive: 20.6 µM [cytotoxic, single point]",
COc1ccccc1C(C)Nc1nc(-c2cccnc2)nc2ccccc12 (stereo not drawn),inactive,
COc1ccc(-c2n[nH]c(C)c2-c2cnn(-c3ccccc3)c2)c(O)c1C,"inconclusive: 29.1 µM [cytotoxic, single point]",
CCOc1cc(C(=O)N/N=C/c2ccsc2)cc(OCC)c1OCC,"inconclusive: 29.1 µM [cytotoxic, single point]",
Cc1ccc(Nc2cc(C)nc(NCc3ccccc3)n2)cc1,"inconclusive: 23.1 µM [cytotoxic, single point]",
CCOc1cc(N2CCOCC2)c(OCC)cc1NC(=O)c1ccc(S(=O)(=O)N2CC(C)OC(C)C2)cc1 (stereo not drawn),inactive,
Cc1ccc(Cl)cc1-n1c(SCC(=O)NCc2ccccc2)nc2n[nH]c(C)c2c1=N,"inconclusive: 29.1 µM [cytotoxic, single point]",
O=C1CCCc2oc3c(c21)CCCC3,"inconclusive: 23.1 µM [rising, single point]",
CSc1ccc(CCNC(=O)CN2C(=O)COc3ccc(S(=O)(=O)N4CCCCCC4)cc32)cc1,"inconclusive: 29.1 µM [cytotoxic, single point]",
COc1ccc(C(=O)N2c3ccccc3C=CC2C#N)cc1 (stereo not drawn),inactive,
COc1ccc(C2OC(=O)CC2C(=O)N2CCN(c3cc(Cl)ccc3C)CC2)cc1OC (stereo not drawn),inactive,
CC(C)(C)c1cc(Br)c(O)c(N=Nc2ccc(S(=O)(=O)N3CCOCC3)cc2)c1,"inconclusive: 29.1 µM [cytotoxic, partial curve, poor fit]",
CC(O)(c1cccc(F)c1)c1nc(-c2csc3ccccc23)cs1 (stereo not drawn),inactive,
Cc1cc(C)c2cc(C)c(SCC(=O)NCc3ccco3)nc2c1,"inconclusive: 16.4 µM [cytotoxic, single point]",
O=C(Nc1ccc(-n2cnnn2)cc1)c1cn2ccccc2n1,"inconclusive: 5.17 µM [cytotoxic, full curve]",
CC(=O)Nc1ccc(/C(C)=N/Nc2nc(Nc3cccc4ccccc34)nc(N3CCOCC3)n2)cc1,"inconclusive: 29.1 µM [cytotoxic, single point]",
CCOC(=O)c1cccc(NC(=O)c2cc(C)nc3c2c(C)nn3-c2ccc(C)cc2)c1,inactive,
Oc1ccccc1-c1nc(NCC2CCCO2)c2ccccc2n1 (stereo not drawn),"inconclusive: 25.9 µM [cytotoxic, single point]",
Cc1c(Cl)cccc1NC(=O)COC(=O)c1c2c(nc3ccccc13)CCN(Cc1ccccc1)C2,"inconclusive: 29.1 µM [cytotoxic, single point]",
CC(=O)Nc1ccc(C=C(C#N)c2ccc(C)cc2)cc1,inactive,

# Part of the list above in another layout.
Structure (SMILES) | Potency | activity change, negative = cytotoxic
CCOc1cc(C(=O)N/N=C/c2ccsc2)cc(OCC)c1OCC | inconclusive: 29.1 µM [cytotoxic, single point] | 
O=C1CCCc2oc3c(c21)CCCC3 | inconclusive: 23.1 µM [rising, single point] | 

# Next entries:

Structure (SMILES),Potency,"activity change, negative = cytotoxic"
O=C(/C(=C(\O)c1ccccc1)c1nc2ccccc2[nH]1)c1ccccc1,"inconclusive: 29.1 µM [cytotoxic, single point]",
COc1cc(C(=O)NC2CC(C)CC(C)(C)C2)cc(OC)c1OC (stereo not drawn),"inconclusive: 18.4 µM [rising, single point]",
COc1ccc(-c2onc(C)c2-c2ccc(C(=O)OC(C)C)o2)c(O)c1,"inconclusive: 16.4 µM [cytotoxic, single point]",
CCN(CC)c1ccc(C(=C2C=CC(=[N+](CC)CC)C=C2)c2ccc(N(CC)CC)cc2)cc1,"inconclusive: 3.66 µM [cytotoxic, full curve]",
CC1CCC2(CC1)NC(=O)N(NC(=O)c1cccc(N(C)C)c1)C2=O (stereo not drawn),inactive,
Nc1nc(CSC(=S)N2CCN(c3ccccc3)CC2)nc(Nc2ccccc2)n1,inactive,
CCOc1ccc(CCN2C(=O)C(=O)N([C@@H](CC(C)C)CN3CCC[C@H]3CN3C(=O)C(=O)NC[C@@H]3Cc3ccccc3)C[C@@H]2Cc2ccc(O)cc2)cc1,inactive,
CC(C)OC(=O)c1ccc(NCc2cc(O)ccc2O)cc1,"inconclusive: 29.1 µM [cytotoxic, single point]",
CC1CN=C(N(Cc2ccccc2)C(=O)Nc2ccccc2)S1 (stereo not drawn),,inconclusive: -35.9% [cytotoxic]
CCOC(=O)c1c(C)c(C(=O)Nc2ccc3c(c2)OCCO3)c(C)n1CC,"inconclusive: 22.4 µM [cytotoxic, single point]",
O=C(Nc1nnc([C@H]2C[C@H](O)[C@@H](CO)O2)s1)Nc1ccc(F)cc1F,inactive,
Cc1nc(Nc2ncc(C(=O)Nc3c(C)cccc3Cl)s2)cc(N2CCN(CCO)CC2)n1,"inconclusive: 20.6 µM [cytotoxic, partial curve]",
COc1ccc(COC(=O)C2=C(C)NC(=O)NC2c2cccc(OC)c2OC)cc1 (stereo not drawn),inactive,
c1ccc(OCCNc2nc(NCC3CC3)nc3cc(-c4ccccc4)sc23)cc1,"inconclusive: 29.1 µM [cytotoxic, single point]",
CCCCNC(=S)N/N=C/c1cc(C)ccc1C,"inconclusive: 25.9 µM [cytotoxic, single point]",
COc1ccc(-n2nc(C(=O)NCC(=O)NC3CCCC(C)C3C)c3ccccc3c2=O)c(OC)c1 (stereo not drawn),"inconclusive: 29.1 µM [cytotoxic, single point]",
O=c1c2sccc2nc(SCc2cc(=O)n3cc(Br)ccc3n2)n1Cc1ccccn1,"inconclusive: 29.1 µM [rising, single point]",
CCOC(=O)C1(CCCc2ccccc2)CCN(C(=O)c2n[nH]c(CC)c2C)CC1,inactive,
CCN(CC)S(=O)(=O)c1ccc(Cl)c(NC(=O)c2ccccc2C)c1,inactive,
CCCNC(=O)c1ccc2c(=O)c(O)c(-c3ccsc3)[nH]c2c1,"inconclusive: 23.1 µM [cytotoxic, single point]",
COc1cc(NC(=O)CN2C(=O)COc3ccc(S(=O)(=O)NC4CCCC4)cc32)cc(OC)c1,inactive,
